Laboratory results as given in the supplement of paper PMC10849652.
This is one part of the list.

Protein sequences, listed by entry. Tags and fused reporters are not part of them. Lines headed by an entry give the natural chain unless they say otherwise; changes in a name come on top.
UniProt Q9H254, whole entry, looked up: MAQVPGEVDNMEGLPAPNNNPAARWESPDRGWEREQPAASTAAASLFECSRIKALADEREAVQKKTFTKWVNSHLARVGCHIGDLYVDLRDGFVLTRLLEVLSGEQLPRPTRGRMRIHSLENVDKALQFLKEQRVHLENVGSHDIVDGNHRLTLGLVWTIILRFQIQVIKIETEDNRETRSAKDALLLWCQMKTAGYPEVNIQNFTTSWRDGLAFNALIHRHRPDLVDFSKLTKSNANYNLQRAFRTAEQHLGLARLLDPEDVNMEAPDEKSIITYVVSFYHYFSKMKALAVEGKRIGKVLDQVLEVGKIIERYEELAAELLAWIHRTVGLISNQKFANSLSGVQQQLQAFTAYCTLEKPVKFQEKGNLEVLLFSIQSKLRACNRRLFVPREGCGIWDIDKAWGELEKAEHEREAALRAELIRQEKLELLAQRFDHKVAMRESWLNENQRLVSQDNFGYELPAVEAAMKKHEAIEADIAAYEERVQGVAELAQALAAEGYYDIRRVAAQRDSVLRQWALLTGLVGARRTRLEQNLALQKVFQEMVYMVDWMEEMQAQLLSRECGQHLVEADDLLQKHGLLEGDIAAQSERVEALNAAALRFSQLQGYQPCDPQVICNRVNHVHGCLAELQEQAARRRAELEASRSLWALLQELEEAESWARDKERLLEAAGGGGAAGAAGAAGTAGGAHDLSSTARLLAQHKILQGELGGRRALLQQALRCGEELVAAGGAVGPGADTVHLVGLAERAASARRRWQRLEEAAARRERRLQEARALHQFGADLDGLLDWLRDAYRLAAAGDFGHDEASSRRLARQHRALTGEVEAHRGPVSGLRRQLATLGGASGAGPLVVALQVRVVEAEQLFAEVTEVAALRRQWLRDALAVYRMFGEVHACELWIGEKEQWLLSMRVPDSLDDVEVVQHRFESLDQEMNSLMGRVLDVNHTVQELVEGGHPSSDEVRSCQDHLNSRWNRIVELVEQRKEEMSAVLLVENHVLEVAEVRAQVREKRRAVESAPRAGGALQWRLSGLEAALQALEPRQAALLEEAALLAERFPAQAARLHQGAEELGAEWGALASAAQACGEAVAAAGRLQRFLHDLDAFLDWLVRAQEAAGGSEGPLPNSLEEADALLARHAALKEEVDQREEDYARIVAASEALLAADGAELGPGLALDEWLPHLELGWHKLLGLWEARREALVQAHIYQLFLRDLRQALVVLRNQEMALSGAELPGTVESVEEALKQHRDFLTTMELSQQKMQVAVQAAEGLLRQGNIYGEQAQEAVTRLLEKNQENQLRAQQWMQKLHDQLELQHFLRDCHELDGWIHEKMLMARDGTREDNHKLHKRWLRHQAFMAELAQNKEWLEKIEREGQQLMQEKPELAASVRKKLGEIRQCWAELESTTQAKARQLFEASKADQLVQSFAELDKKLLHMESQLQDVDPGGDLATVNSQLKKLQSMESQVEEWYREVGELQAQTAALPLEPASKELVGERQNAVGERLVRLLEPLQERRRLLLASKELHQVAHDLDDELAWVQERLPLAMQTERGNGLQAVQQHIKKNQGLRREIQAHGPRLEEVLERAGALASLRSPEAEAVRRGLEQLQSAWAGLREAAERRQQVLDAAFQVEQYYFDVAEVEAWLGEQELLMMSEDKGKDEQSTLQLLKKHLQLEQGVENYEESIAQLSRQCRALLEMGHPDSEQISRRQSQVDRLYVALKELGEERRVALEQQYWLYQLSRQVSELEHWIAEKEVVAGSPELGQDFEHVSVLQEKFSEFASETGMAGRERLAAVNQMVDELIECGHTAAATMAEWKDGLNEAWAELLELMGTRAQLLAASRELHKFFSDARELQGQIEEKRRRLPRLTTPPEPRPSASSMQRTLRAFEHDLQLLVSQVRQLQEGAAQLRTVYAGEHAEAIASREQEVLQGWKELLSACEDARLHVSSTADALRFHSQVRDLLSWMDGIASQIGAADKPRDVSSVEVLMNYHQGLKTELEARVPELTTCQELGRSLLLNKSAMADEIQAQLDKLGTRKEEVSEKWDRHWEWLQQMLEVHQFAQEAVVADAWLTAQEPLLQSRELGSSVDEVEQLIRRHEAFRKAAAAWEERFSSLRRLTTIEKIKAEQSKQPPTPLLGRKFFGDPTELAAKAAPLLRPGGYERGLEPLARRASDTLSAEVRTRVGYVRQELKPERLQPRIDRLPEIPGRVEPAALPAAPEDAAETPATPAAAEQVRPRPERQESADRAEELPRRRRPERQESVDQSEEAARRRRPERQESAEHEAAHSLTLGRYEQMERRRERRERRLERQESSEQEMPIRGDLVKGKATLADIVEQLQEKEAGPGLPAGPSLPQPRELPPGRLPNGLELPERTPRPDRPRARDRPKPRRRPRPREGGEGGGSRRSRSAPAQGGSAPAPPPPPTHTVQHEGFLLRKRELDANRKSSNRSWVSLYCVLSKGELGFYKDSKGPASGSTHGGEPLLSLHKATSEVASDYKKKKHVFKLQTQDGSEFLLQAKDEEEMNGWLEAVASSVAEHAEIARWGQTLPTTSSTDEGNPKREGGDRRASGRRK
UniProt Q13242, whole entry, looked up: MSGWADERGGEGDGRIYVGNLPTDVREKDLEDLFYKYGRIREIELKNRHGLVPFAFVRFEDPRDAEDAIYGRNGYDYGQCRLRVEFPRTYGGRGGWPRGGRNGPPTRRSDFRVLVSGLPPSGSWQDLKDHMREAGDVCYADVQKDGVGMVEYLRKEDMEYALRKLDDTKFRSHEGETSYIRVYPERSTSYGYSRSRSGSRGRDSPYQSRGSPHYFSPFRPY
UniProt Q92783: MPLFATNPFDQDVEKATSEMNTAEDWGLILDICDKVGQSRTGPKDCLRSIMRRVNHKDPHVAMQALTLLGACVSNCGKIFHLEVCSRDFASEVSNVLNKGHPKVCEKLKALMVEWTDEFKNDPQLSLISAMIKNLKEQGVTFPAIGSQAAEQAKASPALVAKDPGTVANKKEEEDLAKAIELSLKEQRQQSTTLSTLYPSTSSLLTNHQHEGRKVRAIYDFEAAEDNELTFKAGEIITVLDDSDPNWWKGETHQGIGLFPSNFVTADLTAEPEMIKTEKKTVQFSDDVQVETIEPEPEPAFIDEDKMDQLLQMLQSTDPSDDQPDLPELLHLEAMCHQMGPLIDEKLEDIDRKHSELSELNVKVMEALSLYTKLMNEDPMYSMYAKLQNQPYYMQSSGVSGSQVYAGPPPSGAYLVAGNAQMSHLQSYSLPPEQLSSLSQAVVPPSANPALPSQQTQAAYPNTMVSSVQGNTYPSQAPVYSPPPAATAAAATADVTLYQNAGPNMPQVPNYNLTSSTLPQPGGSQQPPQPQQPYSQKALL
UniProt Q9BXP5: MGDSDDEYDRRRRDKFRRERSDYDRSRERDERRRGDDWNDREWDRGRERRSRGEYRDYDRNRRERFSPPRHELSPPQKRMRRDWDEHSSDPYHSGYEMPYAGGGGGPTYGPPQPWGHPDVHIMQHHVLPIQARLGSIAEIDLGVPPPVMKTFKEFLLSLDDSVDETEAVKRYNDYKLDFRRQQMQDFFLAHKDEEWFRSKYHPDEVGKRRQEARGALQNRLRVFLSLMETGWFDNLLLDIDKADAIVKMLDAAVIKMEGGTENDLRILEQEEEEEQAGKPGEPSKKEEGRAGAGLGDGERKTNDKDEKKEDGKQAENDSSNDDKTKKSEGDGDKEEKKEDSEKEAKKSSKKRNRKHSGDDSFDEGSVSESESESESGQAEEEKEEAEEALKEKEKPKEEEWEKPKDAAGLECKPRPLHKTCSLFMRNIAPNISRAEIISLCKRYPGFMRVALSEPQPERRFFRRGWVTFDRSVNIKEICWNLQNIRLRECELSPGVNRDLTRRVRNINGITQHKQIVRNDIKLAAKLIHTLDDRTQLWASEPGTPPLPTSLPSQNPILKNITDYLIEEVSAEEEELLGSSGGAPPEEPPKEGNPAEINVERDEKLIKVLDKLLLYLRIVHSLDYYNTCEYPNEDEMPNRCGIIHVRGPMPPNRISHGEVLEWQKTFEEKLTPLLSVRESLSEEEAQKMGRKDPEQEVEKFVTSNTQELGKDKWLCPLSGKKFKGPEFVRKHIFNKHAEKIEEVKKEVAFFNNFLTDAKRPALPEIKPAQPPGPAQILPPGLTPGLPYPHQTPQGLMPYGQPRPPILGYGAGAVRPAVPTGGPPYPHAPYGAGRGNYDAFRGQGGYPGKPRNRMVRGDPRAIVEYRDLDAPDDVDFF
UniProt O15269: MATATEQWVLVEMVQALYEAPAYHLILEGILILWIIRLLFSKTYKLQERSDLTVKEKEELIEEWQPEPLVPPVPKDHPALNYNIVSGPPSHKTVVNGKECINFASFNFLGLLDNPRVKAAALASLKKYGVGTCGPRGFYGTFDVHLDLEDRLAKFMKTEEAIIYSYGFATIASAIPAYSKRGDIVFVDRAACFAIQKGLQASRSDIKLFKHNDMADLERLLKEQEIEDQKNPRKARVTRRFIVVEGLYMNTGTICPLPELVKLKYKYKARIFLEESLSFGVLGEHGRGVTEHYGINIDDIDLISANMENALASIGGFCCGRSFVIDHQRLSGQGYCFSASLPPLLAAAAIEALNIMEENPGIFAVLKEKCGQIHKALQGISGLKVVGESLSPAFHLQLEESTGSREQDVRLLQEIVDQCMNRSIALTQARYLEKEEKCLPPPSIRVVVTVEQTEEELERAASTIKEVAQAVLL
UniProt Q86XZ4: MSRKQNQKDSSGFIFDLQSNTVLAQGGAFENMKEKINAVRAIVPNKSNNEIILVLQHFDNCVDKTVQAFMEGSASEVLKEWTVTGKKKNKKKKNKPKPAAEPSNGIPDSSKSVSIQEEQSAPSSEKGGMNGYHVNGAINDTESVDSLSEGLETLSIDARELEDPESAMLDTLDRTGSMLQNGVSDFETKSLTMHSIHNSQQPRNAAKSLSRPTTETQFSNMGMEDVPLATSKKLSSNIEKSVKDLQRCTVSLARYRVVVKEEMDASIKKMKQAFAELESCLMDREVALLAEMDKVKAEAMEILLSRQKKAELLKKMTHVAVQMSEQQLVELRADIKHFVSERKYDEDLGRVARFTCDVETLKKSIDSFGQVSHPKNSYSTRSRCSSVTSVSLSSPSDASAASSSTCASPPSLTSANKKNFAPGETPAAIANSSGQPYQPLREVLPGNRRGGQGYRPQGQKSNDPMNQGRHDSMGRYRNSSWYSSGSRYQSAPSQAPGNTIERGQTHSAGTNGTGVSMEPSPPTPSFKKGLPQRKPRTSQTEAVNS
UniProt Q9Y365: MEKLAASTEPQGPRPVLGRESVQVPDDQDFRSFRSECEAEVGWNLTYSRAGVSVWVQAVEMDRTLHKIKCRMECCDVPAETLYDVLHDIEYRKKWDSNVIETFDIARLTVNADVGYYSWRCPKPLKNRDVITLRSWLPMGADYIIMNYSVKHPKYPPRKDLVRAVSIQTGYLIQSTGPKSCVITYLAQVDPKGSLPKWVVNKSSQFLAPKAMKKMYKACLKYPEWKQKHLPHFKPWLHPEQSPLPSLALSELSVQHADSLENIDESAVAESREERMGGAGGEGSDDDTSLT
UniProt P51692: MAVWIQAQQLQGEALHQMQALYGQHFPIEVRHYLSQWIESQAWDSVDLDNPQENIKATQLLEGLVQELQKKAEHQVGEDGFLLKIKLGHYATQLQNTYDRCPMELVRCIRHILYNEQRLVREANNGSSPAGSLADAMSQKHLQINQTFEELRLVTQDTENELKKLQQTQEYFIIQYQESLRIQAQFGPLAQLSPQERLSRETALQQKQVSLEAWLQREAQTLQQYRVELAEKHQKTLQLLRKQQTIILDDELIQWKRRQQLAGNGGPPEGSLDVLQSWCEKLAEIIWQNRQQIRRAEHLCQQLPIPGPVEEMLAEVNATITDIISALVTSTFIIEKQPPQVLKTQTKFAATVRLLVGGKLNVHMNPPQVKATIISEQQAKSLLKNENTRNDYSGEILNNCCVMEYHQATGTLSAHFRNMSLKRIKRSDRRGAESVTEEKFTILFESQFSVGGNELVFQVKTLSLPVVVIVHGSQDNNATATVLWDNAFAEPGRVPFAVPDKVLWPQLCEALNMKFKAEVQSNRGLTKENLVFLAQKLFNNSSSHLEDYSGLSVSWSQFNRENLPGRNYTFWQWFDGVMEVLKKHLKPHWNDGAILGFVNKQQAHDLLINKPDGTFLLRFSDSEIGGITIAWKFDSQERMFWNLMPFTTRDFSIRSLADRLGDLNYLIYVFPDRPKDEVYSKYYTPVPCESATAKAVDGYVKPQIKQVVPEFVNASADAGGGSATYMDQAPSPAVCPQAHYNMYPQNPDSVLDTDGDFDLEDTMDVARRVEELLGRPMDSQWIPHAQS
UniProt Q9Y657, whole entry, looked up: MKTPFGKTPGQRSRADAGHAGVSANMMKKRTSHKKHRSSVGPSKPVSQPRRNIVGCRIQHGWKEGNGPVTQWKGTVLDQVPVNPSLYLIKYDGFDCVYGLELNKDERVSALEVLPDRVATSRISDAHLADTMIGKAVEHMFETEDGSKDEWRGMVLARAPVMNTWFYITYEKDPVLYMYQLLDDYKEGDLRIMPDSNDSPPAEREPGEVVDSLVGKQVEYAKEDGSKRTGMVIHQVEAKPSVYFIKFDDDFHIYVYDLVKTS

How the values were obtained:
Assay in all cases: log2 fold change, soluble protein after heating vs DMSO (PISA); higher = thermal stabilisation; K562 lysate, 10 uM; active = over 0.2 and 3.5 SD of the protein, either way, in both replicates (recomputed)
[1] = compound: C=CC(=O)N1CCC[C@@H](n2nc(-c3ccc(Oc4ccccc4)cc3)c3c(N)ncnc32)C1 [ibrutinib]
How it was run: (§1)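 Pellets of K562 cells were dounce-homogenised in PBS pH 7.4 with 1 mM MgCl2, and the crude extract was held at 1 mg/mL protein for a 30 min treatment with 10 μM compound. Aliquots were heated for 3 min over 48°C-58°C and pooled before NP-40 was added to 0.5% at 4°C. The supernatant from 21,000xg for 90 min was quantified by TMTpro 16plex LC-MS/MS with channel sums equalised. Values are reported from duplicates as log-two fold change in thermal stability relative to solvent controls.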

[2] = compound: CC(=O)c1cnc2ccc(-c3cc(Cl)c(O)c(Cl)c3)nc2c1N[C@H]1CC[C@H](CN(C)C)CC1
How it was run: as §1

[3] = compound: CC(C)(C)Cn1c(N)nc2ccc(-c3[nH]c(C(C)(C)C)nc3-c3ccc(F)cc3)nc21 [ralimetinib]
How it was run: as §1

[4] = compound: CC(C)(O)CC(=O)NCCn1ccc2ncnc(Nc3ccc(Oc4cccc(C(F)(F)F)c4)c(Cl)c3)c21
How it was run: as §1

[5] = compound: CC(C)C1=C2N=C(C=C(N2N=C1)NCC3=CC=CC=C3)NCCCCCCN
How it was run: as §1

[6] = compound: CC1=C(C(CC(=O)N1)C2=CC=C(C=C2)C(F)(F)F)C(=O)NC3=C(C=C4C(=C3)C=NN4)F
How it was run: as §1

[7] = compound: CC1=C(C2=C(C=C1)C(=O)C3=CC=CC=C3N2CCCN)C
How it was run: as §1

[8] = compound: CC1=C(C=C(C=C1)NC(=O)C2=CC(=CC=C2)C(C)(C)C#N)NC3=CC4=C(C=C3)N=CN(C4=O)C
How it was run: as §1

[9] = compound: CC1=C(C=C(C=C1)NC(=O)C2=CC(=CC=C2)N(C)C)NC(=O)C3=CC=C(C=C3)O
How it was run: as §1

[10] = compound: CC1=CC=C(C=C1)SC2=C3C=C(SC3=CN=C2)C(=O)N
How it was run: as §1

[11] = compound: CCCS(=O)(=O)Nc1ccc(F)c(C(=O)c2c[nH]c3ncc(-c4ccc(Cl)cc4)cc23)c1F [vemurafenib]
How it was run: as §1

[12] = compound: CCCS(=O)(=O)Nc1ccc(F)c(C(=O)c2c[nH]c3ncc(Cl)cc23)c1F
How it was run: as §1

[13] = compound: CCN(CCCOc1ccc2c(Nc3cc(CC(=O)Nc4cccc(F)c4)[nH]n3)ncnc2c1)CCOP(=O)(O)O [barasertib]
How it was run: as §1

[14] = compound: CC[C@@H]1C(=O)N(C)c2cnc(Nc3ccc(C(=O)NC4CCN(C)CC4)cc3OC)nc2N1C1CCCC1
How it was run: as §1

[15] = compound: CC[C@@H]1C(=O)N(C)c2cnc(Nc3ccc(C(=O)N[C@H]4CC[C@H](N5CCN(CC6CC6)CC5)CC4)cc3OC)nc2N1C(C)C [volasertib]
How it was run: as §1

[16] = compound: CCn1c(C(=O)N(C2CC2)C2CC2)cc2c3c(ncn3C)c(Nc3cc(C)n(C)n3)nc21
How it was run: as §1

[17] = compound: CCn1cc(-c2ccnc3[nH]c(-c4cccc(CN(C)C)c4)cc23)c(-c2ccc(NC(=O)N(C)C)cc2)n1
How it was run: as §1

[18] = compound: CN1CCC(CNc2ccc3ncc(-c4cccc(OC(F)(F)F)c4)n3n2)CC1
How it was run: as §1

[19] = compound: CN1CCN(CCOc2cc(OC3CCOCC3)c3c(Nc4c(Cl)ccc5c4OCO5)ncnc3c2)CC1 [saracatinib]
How it was run: as §1

[20] = compound: CN1CCN(c2nc(C3=C(c4c[nH]c5ccccc45)C(=O)NC3=O)c3ccccc3n2)CC1 [sotrastaurin]
How it was run: as §1

Measured: log2 fold change

SPTBN4 (UniProt Q9H254)
inactive: [1] 0.018 | [2] 0.018 | [3] 0.032 | [4] -0.288 | [5] -0.074 | [6] -0.011 | [7] 0.025 | [8] 0.028 | [9] -0.021 | [10] 0.007 | [11] -0.053 | [12] -0.017 | [13] -0.107 | [14] 0.001 | [15] 0.011 | [16] -0.112 | [17] -0.012 | [18] -0.019 | [19] 0.021 | [20] 0.032

SRSF9 (UniProt Q13242)
inactive: [1] -0.009 | [2] -0.009 | [3] 0.001 | [4] -0.031 | [5] -0.031 | [6] -0.019 | [7] -0.089 | [8] 0.047 | [9] -0.028 | [10] -0.007 | [11] -0.104 | [12] 0.009 | [13] 0.049 | [14] -0.05 | [15] -0.029 | [16] 0.03 | [17] -0.006 | [18] -0.029 | [19] -0.021 | [20] -0.064

SSRP1 (UniProt Q08945)
inactive: [1] -0.003 | [2] -0.001 | [3] 0.031 | [4] 0.034 | [5] -0.017 | [6] -0.022 | [7] -0.071 | [8] 0.001 | [9] 0.026 | [10] 0.009 | [11] -0.008 | [12] 0.003 | [13] 0.019 | [14] -0.036 | [15] -0.017 | [16] 0.004 | [17] 0.007 | [18] -0.015 | [19] 0.026 | [20] 0.008

STAM (UniProt Q92783)
inactive: [1] -0.008 | [2] -0.009 | [3] -0.018 | [4] 0.032 | [5] -0.003 | [6] -0.001 | [7] 0.007 | [8] -0.005 | [9] -0.012 | [10] -0.021 | [11] 0.002 | [12] -0.022 | [13] -0.036 | [14] 0.013 | [15] 0.036 | [16] 0.029 | [17] -0.028 | [18] 0.039 | [19] 0.005 | [20] 0.004

SRRT (UniProt Q9BXP5)
inactive: [1] 0.013 | [2] 0 | [3] 0.026 | [4] 0.006 | [5] -0.01 | [6] -0.024 | [7] -0.012 | [8] -0.008 | [9] 0.043 | [10] -0.001 | [11] 0.012 | [12] 0.012 | [13] -0.008 | [14] -0.039 | [15] -0.08 | [16] 0.042 | [17] 0.061 | [18] -0.1 | [19] -0.016 | [20] 0.02

STAT6 (UniProt P42226)
inactive: [1] 0 | [2] -0.021 | [3] 0.027 | [4] -0.055 | [5] 0.015 | [6] 0.016 | [7] -0.031 | [8] 0.035 | [9] 0.078 | [10] 0.041 | [11] 0.021 | [12] 0.018 | [13] 0.011 | [14] -0.005 | [15] -0.022 | [16] -0.031 | [17] -0.002 | [18] -0.024 | [19] 0.009 | [20] 0.025

SPTLC1 (UniProt O15269)
inactive: [1] -0.021 | [2] 0.005 | [3] 0.009 | [4] -0.007 | [5] -0.05 | [6] -0.005 | [7] -0.004 | [8] 0.034 | [9] 0.022 | [10] -0.002 | [11] 0.016 | [12] -0.017 | [13] 0.005 | [14] 0.038 | [15] 0.001 | [16] -0.009 | [17] -0.029 | [18] -0.028 | [19] 0.035 | [20] -0.014

SRSF7 (UniProt Q16629)
inactive: [1] -0.114 | [2] -0.071 | [3] 0.074 | [4] -0.004 | [5] 0 | [6] -0.005 | [7] -0.023 | [8] -0.037 | [9] 0.02 | [10] -0.079 | [11] 0.012 | [12] 0.03 | [13] -0.057 | [14] -0.007 | [15] 0.012 | [16] 0.017 | [17] -0.034 | [18] 0.193 | [19] -0.008 | [20] 0.028

STAT2 (UniProt P52630)
inactive: [1] 0.007 | [2] 0.007 | [3] 0.04 | [4] -0.026 | [5] -0.003 | [6] 0.009 | [7] -0.002 | [8] -0.059 | [9] 0.003 | [10] 0.004 | [11] 0.04 | [12] 0.026 | [13] -0.021 | [14] -0.03 | [15] -0.047 | [16] 0.033 | [17] -0.011 | [18] -0.164 | [19] -0.009 | [20] 0.029

SRRM1 (UniProt Q8IYB3)
inactive: [1] 0.008 | [2] -0.022 | [3] -0.016 | [4] -0.019 | [5] 0.02 | [6] -0.007 | [7] -0.035 | [8] 0 | [9] 0 | [10] 0.029 | [11] -0.103 | [12] 0.014 | [13] 0.008 | [14] -0.007 | [15] 0.004 | [16] 0.003 | [17] 0.035 | [18] -0.018 | [19] -0.023 | [20] -0.07

SSBP1 (UniProt Q04837)
inactive: [1] 0.004 | [2] -0.017 | [3] -0.004 | [4] -0.028 | [5] -0.008 | [6] -0.01 | [7] 0.025 | [8] 0.014 | [9] 0.015 | [10] -0.032 | [11] 0.032 | [12] -0.003 | [13] -0.027 | [14] 0.028 | [15] 0.029 | [16] -0.015 | [17] -0.044 | [18] 0.058 | [19] 0.004 | [20] 0.02

SPATS2 (UniProt Q86XZ4)
inactive: [1] -0.06 | [2] -0.069 | [3] -0.018 | [4] 0.03 | [5] 0.111 | [6] 0.077 | [7] -0.061 | [8] -0.007 | [9] -0.046 | [10] -0.001 | [11] -0.013 | [12] 0.032 | [13] 0.071 | [14] -0.175 | [15] -0.041 | [16] 0.128 | [17] 0.144 | [18] 0.038 | [19] -0.12 | [20] 0.031

STARD10 (UniProt Q9Y365)
inactive: [1] 0.028 | [2] -0.027 | [3] -0.018 | [4] -0.087 | [5] -0.018 | [6] -0.031 | [7] 0.14 | [8] 0.005 | [9] 0.148 | [10] -0.015 | [11] -0.007 | [12] 0.008 | [13] 0.007 | [14] 0.005 | [15] -0.047 | [16] 0.018 | [17] -0.12 | [18] -0.098 | [19] -0.022 | [20] 0.005

STAT5B (UniProt P51692)
inactive: [1] -0.017 | [2] 0.017 | [3] -0.026 | [4] -0.024 | [5] -0.013 | [6] -0.03 | [7] -0.013 | [8] 0.029 | [9] 0.01 | [10] -0.031 | [11] 0.039 | [12] 0.01 | [13] 0.059 | [14] 0.002 | [15] -0.064 | [16] -0.017 | [17] -0.068 | [18] -0.051 | [19] -0.014 | [20] 0.004

SPIN1 (UniProt Q9Y657)
inactive: [1] 0.088 | [2] 0.092 | [3] 0.004 | [4] -0.01 | [5] -0.002 | [6] -0.062 | [7] -0.031 | [8] 0.037 | [9] 0.004 | [10] -0.099 | [11] 0.032 | [12] 0.027 | [13] 0.066 | [14] 0.036 | [15] -0.082 | [16] -0.028 | [17] 0.053 | [18] 0 | [19] 0.062 | [20] -0.073

SPTA1 (UniProt P02549)
inactive: [1] -0.008 | [2] -0.004 | [3] 0.025 | [4] 0.018 | [5] -0.023 | [6] 0.003 | [7] -0.017 | [8] -0.013 | [9] 0.033 | [10] 0.009 | [11] -0.01 | [12] 0.012 | [13] 0.006 | [14] -0.052 | [15] -0.055 | [16] 0.041 | [17] -0.017 | [18] -0.034 | [19] 0.011 | [20] 0.018
